# This is one part of the list. Shown are side measurements of this screen, not its main read-out; they come without a call. Compounds called inactive in the main read-out are mostly missing here. Potencies come from curve fits of mixed quality, noted in brackets.
# Test: qHTS Assay for Lipid Storage Modulators in Drosophila S3 Cells;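 on cell number change: cells counted by Cell Tracker Red CMTPX staining in the red channel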
# Details: BODIPY lipid droplet fluorescence, 18-24 h; for cell number change: measured here: cell count max response, cells fed with added oleic acid
# In short: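 Drosophila S3 cells loaded with oleic acid (400 uM, as added) and compounds at several concentrations; lipid droplets imaged by 488-nm laser-scanning cytometry, 500–530 nm intensity and object ratio to cell channel. Percent activity normalized to 20 uM Triacsin C.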
# [1] = measured here: lipid fluorescence (Fed channel) AC50, cells fed with added oleic acid
# [2] = measured here: cell number channel AC50, cells fed with added oleic acid
smiles,measurement,setting,value
COC(=O)c1sc(NC(=O)COc2cccnc2[N+](=O)[O-])c(C(=O)OC)c1C,cell number change,,-20.5%
same,AC50,[1],"29.1 µM [falling, single point]"
c1ccc(CSc2nnc(-c3ccco3)n2Cc2ccccc2)cc1,cell number change,,-4.7%
same,AC50,[2],"0.651 µM [falling, single point]"
Cc1cc(C(C)(C)C)cc(C)c1S(=O)(=O)N1CC(=O)Nc2ccccc21,cell number change,,-16.8%
Cc1ccc(S(=O)(=O)NCC(=O)OCc2csc(-c3ccccc3)n2)cc1,cell number change,,33.2%
same,AC50,[2],"18.4 µM [rising, single point]"
same,AC50,[1],"0.0731 µM [falling, full curve, poor fit]"
Nc1c(N(CCC2=CCCCC2)C(=O)Cc2ccccc2F)c(=O)[nH]c(=O)n1Cc1ccccc1,cell number change,,-10.7%
same,AC50,[1],"0.411 µM [falling, partial curve, poor fit]"
C/C=C/c1ccc(OCC(=O)Nc2cc(S(=O)(=O)N3CCOCC3)ccc2N2CCCC2)c(OC)c1,cell number change,,-24.7%
same,AC50,[1],"4.11 µM [falling, partial curve, poor fit]"
Cn1c(=O)c2c(nc(CN3CCN(c4ccc(F)cc4)CC3)n2Cc2ccccc2F)n(C)c1=O,cell number change,,-17%
same,AC50,[1],"0.58 µM [rising, single point]"
Cc1cccc(CN2CCCC(C(=O)N3CCCCC3)C2)c1 (stereo not drawn),cell number change,,67.6%
same,AC50,[2],"29.1 µM [rising, single point]"
CC1(NC(=O)c2cccc(S(=O)(=O)N3CCCc4ccccc43)c2)CCS(=O)(=O)C1 (stereo not drawn),cell number change,,17.9%
same,AC50,[1],"6.51 µM [rising, partial curve]"
O=C(CSc1nc2ccc(Cl)cc2[nH]1)NCCc1ccc(Cl)cc1,cell number change,,18.2%
same,AC50,[1],"29.1 µM [rising, single point]"
CN(C)/C=N/c1c(C(=O)NCc2ccccc2)nnn1Cc1ccccc1,cell number change,,31.6%
same,AC50,[2],"23.1 µM [rising, single point]"
same,AC50,[1],"0.116 µM [falling, full curve, poor fit]"
O=C(Nc1ccc(F)cc1)C1CC(=O)n2cnnc2N1 (stereo not drawn),cell number change,,-32.2%
Cc1cc2nnc(SCC(=O)NCc3cccs3)n2c2ccccc12,cell number change,,1.23%
same,AC50,[1],"0.13 µM [rising, full curve]"
O=C(O)Cc1ccc(C(=O)c2ccc(F)cc2)s1,cell number change,,-6.72%
same,AC50,[1],"6.51 µM [falling, single point]"
C=CCN(C(=O)c1csnn1)C(C(=O)NC1CCCC1)c1c(F)cccc1Cl (stereo not drawn),AC50,[1],"7.31 µM [falling, partial curve]"
COc1ccc(NC(=O)c2cccc(N3C(=O)NC4CC3(C)Oc3ccccc34)c2)cc1 (stereo not drawn),cell number change,,121%
same,AC50,[2],"20.6 µM [rising, partial curve]"
same,AC50,[1],"3.26 µM [rising, partial curve]"
Cc1cccc(N(CC(=O)NC2CCCC2)C(=O)CCC(=O)Nc2nc(C)cs2)c1,cell number change,,10%
COc1ccc(S(=O)(=O)NC2CCSc3ccccc32)cc1NC(C)=O (stereo not drawn),cell number change,,-2.63%
O=C(COC(=O)/C=C/c1cccs1)Nc1cccc(S(=O)(=O)N2CCCC2)c1,cell number change,,-5.85%
same,AC50,[1],"6.51 µM [rising, single point]"
Cc1cccc(Cc2nnc(CCC(=O)NCc3ccncc3C)o2)c1,cell number change,,-18.3%
same,AC50,[1],"5.8 µM [falling, partial curve]"
CCOc1ccc(/C=N/n2c(SC)nnc2-c2ccccc2)cc1OCC,cell number change,,7.3%
same,AC50,[1],"2.06 µM [rising, partial curve, poor fit]"
COc1ccc(CN2C(=O)COc3ccccc32)cc1,cell number change,,2.46%
same,AC50,[1],"0.411 µM [rising, single point]"
CCO[C@H]1OC(C(=O)NC2CC2)=C[C@@H](c2ccccc2)[C@@H]1CCCO,cell number change,,20.2%
same,AC50,[1],"5.17 µM [rising, partial curve, poor fit]"
Cn1c(SCc2cccc(F)c2)nnc1-c1ccccn1,cell number change,,18.6%
same,AC50,[1],"29.1 µM [rising, single point]"
Cc1cccc(NC(=O)CNC(=O)COC(=O)c2ccc(C(C)(C)C)cc2)c1C,cell number change,,36.6%
same,AC50,[2],"0.0651 µM [rising, full curve, poor fit]"
same,AC50,[1],"23.1 µM [rising, partial curve, poor fit]"
CC(C)=CC1C(C(=O)Nc2ccc(Br)cn2)C1(C)C (stereo not drawn),cell number change,,-34%
same,AC50,[2],"29.1 µM [falling, single point]"
O=C(CN1CCCC1)Nc1c2c(nc3ccccc13)N(Cc1ccccc1)CC2,cell number change,,22.2%
same,AC50,[1],"1.84 µM [rising, partial curve, poor fit]"
CN(c1cccc(NC(=O)c2cccc([N+](=O)[O-])c2)c1)S(C)(=O)=O,cell number change,,10.2%
same,AC50,[1],"25.9 µM [falling, single point]"
CN(C)c1nnc(-c2ccc(Cl)cc2)o1,cell number change,,47.5%
same,AC50,[2],"29.1 µM [rising, single point]"
same,AC50,[1],"18.4 µM [rising, single point]"
COc1ccc(N(C(=O)c2snc(C(N)=O)c2N)C(C(=O)NCc2ccccc2)c2ccc(O)cc2)cc1 (stereo not drawn),cell number change,,-0.806%
same,AC50,[1],"0.00461 µM [falling, full curve]"
COc1ccc(CCNS(=O)(=O)c2ccc(OC)c(OC)c2)cc1OC,cell number change,,14.3%
same,AC50,[1],"29.1 µM [rising, single point]"
CCOc1ccc(-n2c(SCc3nc(-c4cccs4)no3)nnc2-c2ccncc2)cc1,AC50,[2],"0.411 µM [rising, partial curve, poor fit]"
same,AC50,[1],"0.411 µM [rising, partial curve, poor fit]"
COc1ccc(N2CC(C(=O)N3CCN(C(=O)c4ccco4)CC3)CC2=O)cc1 (stereo not drawn),cell number change,,-1.9%
same,AC50,[1],"29.1 µM [rising, partial curve, poor fit]"
CCn1c(SCC(=O)O)nc2ccccc21,cell number change,,-0.36%
same,AC50,[1],"0.58 µM [falling, full curve, poor fit]"
Cc1c(C)n(Cc2ccccc2)c2ccc(C(=O)NCCN3CCOCC3)cc12,cell number change,,41.7%
same,AC50,[2],"16.4 µM [rising, single point]"
same,AC50,[1],"25.9 µM [rising, single point]"
CC(C)(C)n1cnc2cc(NC(=O)c3ccccc3)ccc21,cell number change,,-9.26%
same,AC50,[1],"6.51 µM [falling, single point]"

# Given tab-delimited: entries from further up
smiles	measurement	setting	value
Cc1ccc(S(=O)(=O)NCC(=O)OCc2csc(-c3ccccc3)n2)cc1	AC50	[2]	18.4 µM [rising, single point]
Nc1c(N(CCC2=CCCCC2)C(=O)Cc2ccccc2F)c(=O)[nH]c(=O)n1Cc1ccccc1	AC50	[1]	0.411 µM [falling, partial curve, poor fit]
Cc1cccc(CN2CCCC(C(=O)N3CCCCC3)C2)c1 (stereo not drawn)	cell number change		67.6%
CN(C)/C=N/c1c(C(=O)NCc2ccccc2)nnn1Cc1ccccc1	AC50	[2]	23.1 µM [rising, single point]
COc1ccc(NC(=O)c2cccc(N3C(=O)NC4CC3(C)Oc3ccccc34)c2)cc1 (stereo not drawn)	AC50	[2]	20.6 µM [rising, partial curve]

# — PubChem BioAssay AID2685 (National Center for Advancing Translational Sciences (NCATS), 2010)
